# Test results as given in PubChem BioAssay AID2685 (National Center for Advancing Translational Sciences (NCATS), 2010).
# Some of the results follow. Further columns of the screen follow, without active or inactive calls. Most of these compounds were active or inconclusive in the main read-out, so they are no random draw. Words in brackets tell the shape of the fitted curve; partial curves, single points and poor fits give uncertain potencies.
# Assay: qHTS Assay for Lipid Storage Modulators in Drosophila S3 Cells;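 on cell number change: cells counted by Cell Tracker Red CMTPX staining in the red channel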
# Settings: BODIPY lipid droplet fluorescence, 18-24 h; for cell number change: measured here: cell count max response, cells fed with added oleic acid
# Method in brief: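 Drosophila S3 cells got compounds at several concentrations plus oleic acid (400 uM solution). Laser-scanning cytometry with 488 nm excitation read lipid droplets at 500-530 nm and cells at 575-640 nm. Percent activity was relative to 20 uM Triacsin C.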
# [1] = measured here: lipid fluorescence (Fed channel) AC50, cells fed with added oleic acid
# [2] = measured here: cell number channel AC50, cells fed with added oleic acid
Structure (SMILES),cell number change,AC50 [1],AC50 [2]
C/C(CC(=O)Nc1cccc(Cl)c1)=N\NC(=O)Cc1ccc(Cl)cc1,-8.97%,"1.84 µM [rising, partial curve]",–
[O-][N+]1=C2CCC/C(=N\O)C2=NC12CCCCC2,14.3%,–,–
O=C1C=C(c2ccccc2)CC(c2cccs2)C1n1cnc([N+](=O)[O-])c1 (centres undefined),-7.67%,"1.3 µM [falling, full curve]","0.651 µM [falling, single point]"
CCOC(=O)c1ccc2c(c1)N(Cc1ccccc1C)C(=O)c1ccccc1S2=O (centres undefined),-29.7%,–,–
COc1ccc(NC(=O)CSc2n[nH]c(=O)n2Cc2ccccc2)cc1Cl,2.94%,"6.51 µM [rising, partial curve]",–
CN(C)CCCN1C(=O)C(=O)/C(=C(/O)c2ccncc2)C1c1cccc(Br)c1 (centres undefined),28.8%,"3.66 µM [falling, full curve]","4.11 µM [falling, partial curve]"
CC(=O)c1cc(F)c(N2CCN(C(=O)Cc3ccccc3)CC2)cc1C,–,–,"3.66 µM [rising, partial curve]"
CSCC(=O)N1CCCC(CNC(=O)c2ccccc2Cl)C1 (centres undefined),9.43%,–,–
COc1ccccc1NS(=O)(=O)c1cc(NC(=O)/C=C/c2cccs2)ccc1N1CCOCC1,36.4%,"2.06 µM [rising, partial curve, poor fit]","4.61 µM [rising, single point]"
COc1ccc(C2C(C(=O)c3ccc(C)o3)=C(O)C(=O)N2Cc2ccco2)cc1OC (centres undefined),-11.6%,"3.26 µM [falling, single point]",–
CC(C)C[C@H](N)c1nnc(SCc2ccc(Cl)cc2)o1,22.6%,–,"1.84 µM [rising, partial curve, poor fit]"
O=C(Nc1ccc(S(=O)(=O)N2CCOCC2)cc1)c1c(F)cccc1F,-3.33%,"0.164 µM [rising, full curve]",–
COc1ccc(CCC(=O)N2CCCC(Nc3ccccc3)C2)cc1OC (centres undefined),33%,"1.03 µM [rising, full curve]",–
Cn1c(Cl)cnc1C(O)c1ccccc1 (centres undefined),-35.6%,"2.06 µM [falling, full curve]","0.146 µM [falling, full curve]"
CC1CN(S(=O)(=O)c2cccc(C(=O)NCC3COc4ccccc4O3)c2)CC(C)O1 (centres undefined),-41.2%,"32.6 µM [falling, single point]","13 µM [falling, partial curve]"
O=C(NC12CC3CC(CC(C3)C1)C2)N1CCN(c2nc(-c3ccccc3)cs2)CC1,-18.7%,"25.9 µM [falling, single point]",–
Cc1ccc(NC(=O)Cc2nnc(SCC(=O)NC3CCCC3)n2C)cc1C,17.9%,"0.116 µM [falling, full curve, poor fit]","0.461 µM [rising, partial curve, poor fit]"
Cc1ccc(OCC(=O)NNC(=O)c2cc(C)[nH]n2)cc1,33.3%,–,"20.6 µM [rising, single point]"

# A stretch from the list above:
Structure (SMILES),cell number change,AC50 [1],AC50 [2]
O=C(Nc1ccc(S(=O)(=O)N2CCOCC2)cc1)c1c(F)cccc1F,-3.33%,"0.164 µM [rising, full curve]",–
COc1ccc(CCC(=O)N2CCCC(Nc3ccccc3)C2)cc1OC (centres undefined),33%,"1.03 µM [rising, full curve]",–

# Further structures:

Structure (SMILES),cell number change,AC50 [1],AC50 [2]
COc1ccccc1/C=C\C(=O)NCC(=O)N/N=C/c1ccc(O)cc1O,4.16%,"6.51 µM [rising, single point]","2.91 µM [rising, single point]"
CC(C)(C)OC(=O)N1Cc2ccccc2C[C@H]1C(=O)NCC(=O)NC1CCCC1,22.6%,"3.26 µM [rising, single point]",–
CC(C)c1ccc(OCc2cccc(C(=O)N/N=C/c3cccnc3)c2)cc1,–,"6.51 µM [rising, single point]",–
COc1ccc(CC(=O)N(Cc2ccccc2)c2ccc(C)cc2)cc1S(=O)(=O)N1CCOCC1,45.5%,–,–
O=C(COC(=O)C1CC(O)CN1S(=O)(=O)c1ccccc1[N+](=O)[O-])c1ccc[nH]1 (centres undefined),-30.6%,"2.31 µM [falling, partial curve, poor fit]","0.231 µM [falling, full curve, poor fit]"
O=C(NCCc1ccncc1)Nc1ccc(Cl)c(Cl)c1,27%,–,–
CC1(C)CC(=O)C2=C(C1)OC(c1ccncc1)C(C#N)=C2N (centres undefined),-3.86%,"5.8 µM [rising, partial curve]",–
O=C(O)c1ccccc1-c1noc(-c2ccccc2F)n1,45.5%,"14.6 µM [rising, partial curve]","16.4 µM [rising, partial curve, poor fit]"
Cc1ccc2nc(NCCc3ccccc3)c3nncn3c2c1,9.72%,"0.58 µM [falling, single point]",–
Cc1ccc2nc(N(CCCN(C)C)C(=O)c3cc(-c4cccs4)nc4ccccc34)sc2c1,-45%,"29.1 µM [falling, single point]","14.6 µM [falling, partial curve, poor fit]"
COC(=O)[C@@H]1C[C@H]2CC[C@H](O)C[C@H]2N1Cc1ccc(C)s1,30.4%,"2.31 µM [rising, partial curve]",–
Cn1c2ccccc2c(=O)c2c(=O)n(C3CCCCC3)c(-c3cccs3)nc21,24.8%,–,–
COc1ccc(-c2cc3c(=O)n(CC(=O)NCc4ccccc4F)ncn3n2)cc1,9.8%,–,"0.092 µM [rising, full curve, poor fit]"
N=c1c2c3c(sc2ncn1Cc1ccccc1)CCCC3,8.86%,"4.11 µM [rising, partial curve, poor fit]",–
CCC(=O)Nc1ccc(NC(=S)Nc2ccccc2)cc1,-17.8%,"6.51 µM [rising, single point]","5.8 µM [rising, single point]"
Cc1cccc(C(=O)NC2CCN(C(=O)Nc3ccccc3C)CC2)c1,-83.4%,"0.146 µM [falling, full curve, poor fit]","7.31 µM [falling, partial curve]"
Cc1ccc(-n2c(-c3ccco3)nc3c(cnn3-c3ccccc3C)c2=O)cc1,2.81%,"1.46 µM [rising, partial curve]",–
